From patent publication US9745279B2, “Sirtuin activator” (TOKIWA PHYTOCHEMICAL CO., LTD., priority 2011, dated 2017)
Some of these results come from one statement about several compounds together.

Biological target: T1, SIRT1 enzyme (Homo sapiens, UniProt Q96EB6)
T1 construct: purchased BIOMOL International (via COSMO BIO CO., LTD.) AK-555 (kit); SE-239 (enzyme)
T1 sequence (Q96EB6 1-747): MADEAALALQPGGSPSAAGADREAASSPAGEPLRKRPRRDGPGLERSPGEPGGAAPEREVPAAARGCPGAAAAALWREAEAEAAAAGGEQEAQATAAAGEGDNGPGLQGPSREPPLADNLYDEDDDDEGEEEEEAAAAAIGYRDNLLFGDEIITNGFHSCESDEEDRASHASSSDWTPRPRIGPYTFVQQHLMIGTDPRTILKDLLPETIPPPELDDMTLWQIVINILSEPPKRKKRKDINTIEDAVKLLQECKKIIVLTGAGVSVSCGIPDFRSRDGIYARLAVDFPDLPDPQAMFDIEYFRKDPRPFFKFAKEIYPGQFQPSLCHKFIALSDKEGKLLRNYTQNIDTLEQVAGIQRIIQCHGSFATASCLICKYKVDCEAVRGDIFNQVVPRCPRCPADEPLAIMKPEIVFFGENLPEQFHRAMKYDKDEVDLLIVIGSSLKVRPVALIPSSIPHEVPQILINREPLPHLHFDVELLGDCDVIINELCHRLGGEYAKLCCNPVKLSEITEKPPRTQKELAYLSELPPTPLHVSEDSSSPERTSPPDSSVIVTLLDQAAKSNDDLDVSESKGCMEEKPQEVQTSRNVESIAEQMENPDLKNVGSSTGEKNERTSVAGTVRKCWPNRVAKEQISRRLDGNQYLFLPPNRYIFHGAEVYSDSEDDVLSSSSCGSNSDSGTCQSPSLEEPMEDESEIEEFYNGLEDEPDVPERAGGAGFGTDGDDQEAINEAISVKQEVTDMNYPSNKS
Experiment: SIRT1 fluorescent activity assay: sirtuin activity acceleration by polyalkoxyflavonoid compounds (Example 6)
Assay type: biochemical
Details: low concentrations of 10 μg/mL and 2 μg/mL; FIG. 8
Experimental: The sirtuin activity was measured according to a protocol similar to that of Example 3.
All measurement reagents (preserved at −80° C.) were stationed on ice until use to melt the SIRT1 enzyme (SE-239) and 5× Developer II (KI-176) moderately. SIRT1 enzyme was diluted to 0.2 U/μL with an assay buffer (KI-286). Resveratrol, Compounds 1 to 5 and nobiletin (Funakoshi Co.) were used as subject samples. […] To the control was added DMSO instead of a subject sample. The substrate Fluor de Lys-SIRT1 (KI-177; 5 mM) plus a coenzyme NAD^+ (KI-282; 50 mM) was diluted with an assay buffer (KI-286) to obtain a concentration that is 3.33 folds that of the final use concentration, and used in an amount of 15 μL/well. A subject sample solution (10 μL/well), SIRT1 enzyme solution (0.2 U/μL, 5 μL/well) and an assay buffer (10 μL/well) were added to the measurement microplate and pre-incubated at 37° C. for 5 minutes. The substrate solution that was heated preliminary at 37° C. was added at 25 μL/well, then, further incubated at 37° C. for 10 minutes. Then, a reaction stop solution Developer II/2 mM nicotinamide was added at 50 μL/well, and the fluorescent probe generated from Developer II was measured (excited wave length 360 nm, fluorescent wave length 460 nm) by a fluorescent plate reader (Tecan Co., Infinite 200) within 60 minutes after the reaction stopped.

SMILES | SIRT1 activity
COc1cc(OC)c2c(=O)c(OC)c(-c3ccccc3)oc2c1 [Compound 5, 3,5,7-trimethoxyflavone] | Activity was observed
COc1ccc(-c2cc(=O)c3c(OC)c(OC)c(OC)c(OC)c3o2)cc1OC [nobiletin, reference compound] | Activity was observed
